According to the supplement of paper PMC10849652:
The list shows a part of the results.

Amino acid sequences for entries named in this document (tags omitted). A change or cut given only in a name is not applied to a line headed by its entry.
UniProt P0CG12: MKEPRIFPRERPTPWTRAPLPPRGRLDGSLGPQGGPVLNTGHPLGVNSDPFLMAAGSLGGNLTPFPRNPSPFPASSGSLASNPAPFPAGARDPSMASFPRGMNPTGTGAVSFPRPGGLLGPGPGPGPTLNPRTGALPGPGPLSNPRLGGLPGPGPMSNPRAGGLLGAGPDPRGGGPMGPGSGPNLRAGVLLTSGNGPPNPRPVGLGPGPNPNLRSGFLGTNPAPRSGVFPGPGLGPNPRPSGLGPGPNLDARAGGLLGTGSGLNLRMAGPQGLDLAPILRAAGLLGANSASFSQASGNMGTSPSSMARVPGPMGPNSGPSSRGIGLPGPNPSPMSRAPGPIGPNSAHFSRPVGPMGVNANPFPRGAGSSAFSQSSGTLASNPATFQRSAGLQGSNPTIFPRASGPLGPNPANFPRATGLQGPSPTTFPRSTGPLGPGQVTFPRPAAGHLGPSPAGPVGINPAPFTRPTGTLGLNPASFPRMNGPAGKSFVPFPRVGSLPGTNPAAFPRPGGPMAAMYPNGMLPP
UniProt Q13561, whole entry, looked up: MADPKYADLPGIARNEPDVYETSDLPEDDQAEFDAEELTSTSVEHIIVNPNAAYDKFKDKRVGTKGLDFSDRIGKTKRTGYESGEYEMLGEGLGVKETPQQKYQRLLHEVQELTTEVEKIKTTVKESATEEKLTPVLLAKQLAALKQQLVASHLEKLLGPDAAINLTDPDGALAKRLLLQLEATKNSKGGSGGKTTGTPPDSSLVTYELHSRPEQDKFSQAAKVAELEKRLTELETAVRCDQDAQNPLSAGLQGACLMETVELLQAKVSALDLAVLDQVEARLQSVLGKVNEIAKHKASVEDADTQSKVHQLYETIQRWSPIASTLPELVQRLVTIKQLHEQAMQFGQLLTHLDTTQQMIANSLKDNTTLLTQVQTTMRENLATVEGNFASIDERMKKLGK
UniProt O00273: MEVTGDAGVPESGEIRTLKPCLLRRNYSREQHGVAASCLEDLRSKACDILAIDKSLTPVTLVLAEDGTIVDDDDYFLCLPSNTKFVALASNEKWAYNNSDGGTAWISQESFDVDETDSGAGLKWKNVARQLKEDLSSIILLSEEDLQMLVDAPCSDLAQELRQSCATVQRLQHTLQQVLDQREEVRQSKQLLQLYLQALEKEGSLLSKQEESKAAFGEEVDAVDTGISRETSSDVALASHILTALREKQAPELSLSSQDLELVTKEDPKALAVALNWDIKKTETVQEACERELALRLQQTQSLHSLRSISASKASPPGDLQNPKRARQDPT
UniProt Q13206, whole entry, looked up: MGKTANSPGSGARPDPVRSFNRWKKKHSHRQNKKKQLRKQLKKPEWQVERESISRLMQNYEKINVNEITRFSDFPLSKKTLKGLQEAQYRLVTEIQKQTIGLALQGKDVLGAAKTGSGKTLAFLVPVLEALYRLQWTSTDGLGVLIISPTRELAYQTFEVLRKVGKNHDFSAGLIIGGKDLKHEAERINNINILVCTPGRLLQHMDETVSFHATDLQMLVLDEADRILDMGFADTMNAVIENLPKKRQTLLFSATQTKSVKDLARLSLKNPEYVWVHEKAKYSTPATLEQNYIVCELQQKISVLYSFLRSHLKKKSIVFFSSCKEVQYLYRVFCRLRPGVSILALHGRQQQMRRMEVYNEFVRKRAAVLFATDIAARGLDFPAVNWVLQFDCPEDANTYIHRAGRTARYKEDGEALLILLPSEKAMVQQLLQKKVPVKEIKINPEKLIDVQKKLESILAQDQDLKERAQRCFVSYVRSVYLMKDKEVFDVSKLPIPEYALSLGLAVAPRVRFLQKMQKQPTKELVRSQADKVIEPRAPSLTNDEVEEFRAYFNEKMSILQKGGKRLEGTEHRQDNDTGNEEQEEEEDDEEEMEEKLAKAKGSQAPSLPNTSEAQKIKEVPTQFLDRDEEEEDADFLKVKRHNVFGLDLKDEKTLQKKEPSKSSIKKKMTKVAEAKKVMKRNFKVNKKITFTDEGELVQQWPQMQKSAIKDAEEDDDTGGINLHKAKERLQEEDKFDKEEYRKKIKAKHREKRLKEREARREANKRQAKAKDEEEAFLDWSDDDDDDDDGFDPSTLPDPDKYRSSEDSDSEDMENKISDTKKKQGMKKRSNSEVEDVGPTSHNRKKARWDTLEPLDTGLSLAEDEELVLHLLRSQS
UniProt Q5T1V6: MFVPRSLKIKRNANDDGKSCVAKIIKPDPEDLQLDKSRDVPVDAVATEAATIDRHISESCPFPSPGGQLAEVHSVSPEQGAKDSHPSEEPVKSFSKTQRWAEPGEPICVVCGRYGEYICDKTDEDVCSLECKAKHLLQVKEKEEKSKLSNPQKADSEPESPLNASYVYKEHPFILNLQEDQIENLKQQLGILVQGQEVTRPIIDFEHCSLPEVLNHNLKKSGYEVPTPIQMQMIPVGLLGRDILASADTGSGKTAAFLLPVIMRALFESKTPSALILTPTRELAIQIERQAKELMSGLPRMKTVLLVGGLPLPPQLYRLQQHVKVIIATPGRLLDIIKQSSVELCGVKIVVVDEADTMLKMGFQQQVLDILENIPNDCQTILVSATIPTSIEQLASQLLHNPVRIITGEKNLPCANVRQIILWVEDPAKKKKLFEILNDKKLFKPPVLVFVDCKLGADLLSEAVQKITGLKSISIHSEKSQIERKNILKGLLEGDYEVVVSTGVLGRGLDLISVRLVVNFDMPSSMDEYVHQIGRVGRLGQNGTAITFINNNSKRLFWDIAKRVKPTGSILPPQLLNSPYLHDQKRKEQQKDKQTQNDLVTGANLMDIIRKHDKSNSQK
UniProt Q9H773: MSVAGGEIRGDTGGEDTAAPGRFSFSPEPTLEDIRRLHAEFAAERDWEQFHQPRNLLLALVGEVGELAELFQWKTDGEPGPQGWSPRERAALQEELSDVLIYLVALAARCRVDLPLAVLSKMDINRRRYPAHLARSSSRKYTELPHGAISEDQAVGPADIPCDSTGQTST
UniProt Q9UJW0, whole entry, looked up: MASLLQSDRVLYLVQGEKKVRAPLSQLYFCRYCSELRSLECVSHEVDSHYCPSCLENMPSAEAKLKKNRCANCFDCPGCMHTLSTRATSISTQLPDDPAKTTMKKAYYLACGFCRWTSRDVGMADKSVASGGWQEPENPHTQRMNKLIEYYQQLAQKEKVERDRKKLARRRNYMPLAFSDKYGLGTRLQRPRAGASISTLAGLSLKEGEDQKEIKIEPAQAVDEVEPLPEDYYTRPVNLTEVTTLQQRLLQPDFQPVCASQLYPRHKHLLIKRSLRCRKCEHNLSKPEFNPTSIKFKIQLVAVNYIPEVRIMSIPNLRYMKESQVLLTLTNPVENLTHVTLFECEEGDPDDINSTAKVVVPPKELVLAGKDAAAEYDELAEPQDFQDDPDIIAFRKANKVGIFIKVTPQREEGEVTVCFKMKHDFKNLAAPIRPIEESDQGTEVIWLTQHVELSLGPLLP
UniProt O75935, whole entry, looked up: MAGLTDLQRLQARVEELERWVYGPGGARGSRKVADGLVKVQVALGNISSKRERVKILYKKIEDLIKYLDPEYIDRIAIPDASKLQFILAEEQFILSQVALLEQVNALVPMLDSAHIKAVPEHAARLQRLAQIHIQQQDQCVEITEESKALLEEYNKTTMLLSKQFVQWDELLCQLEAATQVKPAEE
UniProt Q92499: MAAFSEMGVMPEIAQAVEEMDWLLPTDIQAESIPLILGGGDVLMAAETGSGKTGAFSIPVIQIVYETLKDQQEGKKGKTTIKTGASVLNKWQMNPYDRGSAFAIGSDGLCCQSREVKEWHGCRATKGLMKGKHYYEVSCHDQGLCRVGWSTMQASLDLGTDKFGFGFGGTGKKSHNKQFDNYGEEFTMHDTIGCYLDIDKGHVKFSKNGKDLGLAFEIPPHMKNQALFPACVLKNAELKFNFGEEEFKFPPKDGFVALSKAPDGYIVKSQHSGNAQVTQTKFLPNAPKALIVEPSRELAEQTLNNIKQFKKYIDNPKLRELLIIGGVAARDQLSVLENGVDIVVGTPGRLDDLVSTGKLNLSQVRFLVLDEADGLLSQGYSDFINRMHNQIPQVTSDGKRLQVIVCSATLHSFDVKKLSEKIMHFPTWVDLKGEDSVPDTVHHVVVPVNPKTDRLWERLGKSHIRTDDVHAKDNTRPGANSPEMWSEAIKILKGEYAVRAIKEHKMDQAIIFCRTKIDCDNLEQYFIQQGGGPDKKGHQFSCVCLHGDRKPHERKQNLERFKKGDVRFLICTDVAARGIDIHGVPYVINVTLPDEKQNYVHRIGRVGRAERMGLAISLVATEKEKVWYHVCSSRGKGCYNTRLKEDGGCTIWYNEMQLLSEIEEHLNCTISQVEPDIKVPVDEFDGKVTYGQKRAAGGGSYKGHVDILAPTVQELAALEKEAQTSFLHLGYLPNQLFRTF
UniProt P35659: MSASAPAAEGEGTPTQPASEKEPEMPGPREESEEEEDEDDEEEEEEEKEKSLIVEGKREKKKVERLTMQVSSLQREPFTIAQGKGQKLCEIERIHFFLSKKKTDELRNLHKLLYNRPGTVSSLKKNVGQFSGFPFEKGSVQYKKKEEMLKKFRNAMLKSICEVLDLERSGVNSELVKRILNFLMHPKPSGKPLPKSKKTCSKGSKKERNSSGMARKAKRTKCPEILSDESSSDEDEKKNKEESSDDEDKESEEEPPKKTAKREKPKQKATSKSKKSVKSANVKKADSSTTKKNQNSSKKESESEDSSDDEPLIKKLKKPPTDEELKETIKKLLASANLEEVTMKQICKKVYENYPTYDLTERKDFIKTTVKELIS
UniProt Q96C86: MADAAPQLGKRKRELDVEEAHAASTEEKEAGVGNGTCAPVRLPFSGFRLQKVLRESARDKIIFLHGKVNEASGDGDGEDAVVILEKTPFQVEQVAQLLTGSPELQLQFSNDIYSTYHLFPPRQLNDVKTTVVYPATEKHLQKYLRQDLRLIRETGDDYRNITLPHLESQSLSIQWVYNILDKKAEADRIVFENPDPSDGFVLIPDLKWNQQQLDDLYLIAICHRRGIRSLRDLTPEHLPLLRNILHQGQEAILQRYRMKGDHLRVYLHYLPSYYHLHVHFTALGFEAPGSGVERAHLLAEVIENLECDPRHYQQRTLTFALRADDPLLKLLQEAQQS
UniProt Q96HY6: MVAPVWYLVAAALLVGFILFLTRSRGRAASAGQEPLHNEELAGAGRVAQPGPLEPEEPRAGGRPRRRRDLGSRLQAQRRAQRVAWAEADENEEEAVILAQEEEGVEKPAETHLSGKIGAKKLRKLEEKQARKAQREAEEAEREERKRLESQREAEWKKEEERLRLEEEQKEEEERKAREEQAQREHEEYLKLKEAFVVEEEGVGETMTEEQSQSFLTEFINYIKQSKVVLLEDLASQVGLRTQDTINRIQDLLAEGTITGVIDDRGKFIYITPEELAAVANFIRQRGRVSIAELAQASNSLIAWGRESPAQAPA
UniProt P14868: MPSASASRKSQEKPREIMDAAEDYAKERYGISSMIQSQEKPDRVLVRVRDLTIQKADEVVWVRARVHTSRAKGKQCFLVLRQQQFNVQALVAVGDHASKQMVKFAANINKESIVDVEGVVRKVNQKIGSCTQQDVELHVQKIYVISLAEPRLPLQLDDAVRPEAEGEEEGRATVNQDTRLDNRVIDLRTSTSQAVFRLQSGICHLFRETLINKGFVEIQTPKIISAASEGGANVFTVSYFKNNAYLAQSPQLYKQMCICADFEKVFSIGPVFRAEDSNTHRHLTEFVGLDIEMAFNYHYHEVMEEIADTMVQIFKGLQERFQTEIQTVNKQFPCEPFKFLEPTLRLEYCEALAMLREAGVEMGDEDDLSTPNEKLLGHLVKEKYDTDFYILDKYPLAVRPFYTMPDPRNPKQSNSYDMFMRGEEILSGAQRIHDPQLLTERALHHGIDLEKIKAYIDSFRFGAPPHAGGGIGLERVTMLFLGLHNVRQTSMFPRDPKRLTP
UniProt Q9NQI0, whole entry, looked up: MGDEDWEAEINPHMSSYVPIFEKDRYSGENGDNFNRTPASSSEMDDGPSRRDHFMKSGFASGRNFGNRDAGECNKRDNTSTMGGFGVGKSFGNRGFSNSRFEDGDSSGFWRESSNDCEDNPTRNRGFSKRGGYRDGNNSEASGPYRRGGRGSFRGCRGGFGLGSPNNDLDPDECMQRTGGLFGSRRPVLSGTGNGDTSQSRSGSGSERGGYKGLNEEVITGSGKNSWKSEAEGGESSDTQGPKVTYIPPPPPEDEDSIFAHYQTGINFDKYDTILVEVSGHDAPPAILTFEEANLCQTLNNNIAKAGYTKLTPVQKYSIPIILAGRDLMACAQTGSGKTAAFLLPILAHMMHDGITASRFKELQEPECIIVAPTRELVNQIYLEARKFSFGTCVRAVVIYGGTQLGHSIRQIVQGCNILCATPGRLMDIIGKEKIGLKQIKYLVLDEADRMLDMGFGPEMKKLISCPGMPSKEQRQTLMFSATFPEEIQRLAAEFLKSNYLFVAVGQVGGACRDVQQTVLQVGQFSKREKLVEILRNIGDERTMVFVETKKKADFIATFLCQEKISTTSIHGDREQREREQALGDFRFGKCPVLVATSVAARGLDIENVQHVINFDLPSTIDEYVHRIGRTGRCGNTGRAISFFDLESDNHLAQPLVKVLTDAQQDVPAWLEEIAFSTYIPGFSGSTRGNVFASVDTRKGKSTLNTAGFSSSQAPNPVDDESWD

Each target was assayed with C1=CC=C(C=C1)[C@H](COC2=CC3=C(C=C2)NC(=O)N3)NC(=O)C4=CC=CN(C4=O)CC5=CC(=C(C=C5)F)F (assay: log2 fold change, soluble protein after heating vs DMSO (PISA); higher = thermal stabilisation; K562 lysate, 10 uM; active = over 0.2 and 3.5 SD of the protein, either way, in both replicates (recomputed)).
Procedure, shortened: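 Log-two fold change in thermal stability relative to solvent controls is reported from duplicates. For each sample, crude K562 extract from dounce-homogenised pellets in PBS pH 7.4 with 1 mM MgCl2, at 1 mg/mL protein, was treated with 10 μM compound for 30 min. Aliquots heated for 3 min across 48°C-58°C were pooled, brought to 0.5% NP-40 at 4°C and cleared at 21,000xg for 90 min. The supernatant was quantified by TMTpro 16plex LC-MS/MS with channel sums equalised.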
In the case of DDX19A (UniProt Q9NUU7), the log2 fold change is reported as inactive: -0.014. DERPC (UniProt P0CG12) was tested, and the log2 fold change was inactive: -0.008. In the case of DCTN2 isoform 3 (UniProt Q13561), the log2 fold change is reported as inactive: 0.003. With DEPDC5 (UniProt O75140) the log2 fold change was inactive: 0.006. With DERL1 (UniProt Q9BUN8) the log2 fold change was inactive: 0.01. With DCAF6 isoform 3 (UniProt Q58WW2) the log2 fold change was inactive: 0.033. For DFFA isoform 2 (UniProt O00273), the log2 fold change was inactive: 0.105. DDX10 (UniProt Q13206) was tested, and the log2 fold change was inactive: 0.096. In the case of DDX59 (UniProt Q5T1V6), the log2 fold change is reported as inactive: -0.021. In the case of DCTPP1 (UniProt Q9H773), the log2 fold change is reported as inactive: -0.022. With DCTN4 (UniProt Q9UJW0) the log2 fold change was inactive: 0.015. DCTN3 (UniProt O75935) was tested, and the log2 fold change was inactive: 0.008. In the case of DDX1 (UniProt Q92499), the log2 fold change is reported as inactive: 0.009. In the case of DCAF16 (UniProt Q9NXF7), the log2 fold change is reported as inactive: 0.067. For DEK (UniProt P35659), the log2 fold change was inactive: 0.011. With DCPS (UniProt Q96C86) the log2 fold change was inactive: 0.02. DBR1 (UniProt Q9UK59) was tested, and the log2 fold change was inactive: 0.018. DCP2 (UniProt Q8IU60) was tested, and the log2 fold change was inactive: 0.006. With DDX17 (UniProt Q92841) the log2 fold change was inactive: 0. In the case of DDRGK1 (UniProt Q96HY6), the log2 fold change is reported as inactive: 0.049. In the case of DARS (UniProt P14868), the log2 fold change is reported as inactive: -0.01. With DDX4 (UniProt Q9NQI0) the log2 fold change was inactive: -0.047. With DCXR (UniProt Q7Z4W1) the log2 fold change was inactive: -0.041. With DAP3 (UniProt P51398) the log2 fold change was inactive: 0.005.
